Source: paper PMC3237483

Molecular target: His-tagged Ship2 Sh2 domain
Test: far-Western, overlay or dot blot; His-tagged Sh2 domains dot-blotted on a PVDF membrane; membrane incubated with GST-Nephrin cytoplasmic domain from TKB1 (phosphorylated) or BL21 (unphosphorylated) E. coli; probed with GST-HRP antibody; both purified

binding: binds
B1: GST-Nephrin cytoplasmic domain, tyrosine phosphorylated (TKB1) (domain or fragment, UniProt Q9QZS7 1100-1256)
chain: WRRRLRRLAEEISEKTEAGSEEDRIRNEYEESQWTGDRDTRSSTVSTAEVDPHYYSMRDFSPQLPPTLEEVSYRQAFTGIEDEDMAFPGHLYDEVERVYGPPGVWGPLYDEVQMDPYDLRWPEVKYEDPRGIYDQVAADMDAGEPGSLPFELRGHLV
modifications: tyrosine phosphorylated (expressed in TKB1 E. coli); sites not stated

No constants are given. Whether binding was seen depends on the method and setting. A result given as binding can be weak or reduced; the word gives no strength. Sequences can lack the tags named with a protein.
